# Reference: PubChem BioAssay AID540256 (National Center for Advancing Translational Sciences (NCATS), 2011)
# Screen size: about 300,000 compounds; about 3,700 (1.2%) were called active. This list was built around the results that the source calls inconclusive (neither active nor inactive); the mix of calls is not that of the screen. Calls follow the shape of the full dose curve; tested in HEK293 cells. Potencies of inconclusive entries are doubtful fits and often do not repeat.
# Assay: qHTS for Inhibitors of binding or entry into cells for Lassa Virus; also: nearly all actives have a fitted effect of over 50% in size
# Conditions: Lassa virus pseudotype entry inhibition, cell reporter; activity change, negative = inhibition: at 37.9 µM (top of the series) unless noted
# % is scaled to controls: 0 for no effect and ±100 for the full control effect; potency is read from the fitted curve at half-maximal effect.
SMILES,Potency,"activity change, negative = inhibition"
CC(C)(C)c1ccc2c(c1)C(=O)c1ccccc1C2=O,active: 8.91 µM,
COc1ccc(-c2ccc(SCC(=O)NCc3ccc4c(c3)OCO4)nn2)cc1OC,"inconclusive: 3.16 µM [inhibitor, single point]",
COc1ccc(/C=N/NC(=O)C(O)(c2ccccc2)c2ccccc2)cc1OC,"inconclusive: 3.55 µM [activator, single point]",
Cn1nc(-c2ccccc2)c(CO)c1Oc1cccc(C(F)(F)F)c1,,inactive: -18.9%
COc1cccc(NC(=O)CN(C)C(=O)c2cn(-c3ccccc3)nc2-c2cccs2)c1,"inconclusive: 25.1 µM [inhibitor, single point]",
Cc1nnc(NC(=O)c2cc(S(=O)(=O)N3CCCCC3)ccc2Cl)s1,,inactive: 21%
CCOCc1c(C(=O)N2CCN(CCOc3ccc(Cl)cc3)CC2)oc2ccccc12,"inconclusive: 1.41 µM [inhibitor, partial curve, poor fit]",
O=C(CCn1cccn1)Nc1cccc(C(F)(F)F)c1,,inactive: 3.14% [at 46.1 µM]
Nc1[nH]c(N=NC(=O)c2ccccc2O)c2ccccc12,"inconclusive: 0.517 µM [activator, full curve, poor fit]",
CC1CCCN(C(=O)N2c3ccccc3Sc3ccccc32)C1 (centres undefined),"inconclusive: 18.3 µM [inhibitor, single point]",
COc1ccc(C(=O)NCc2ccc3c(c2)CCN3C(=O)c2cccc(C)c2)cc1OC,"inconclusive: 12.6 µM [inhibitor, single point]",
O=C(NC(=S)Nc1ccc(N2CCN(C(=O)c3ccccc3)CC2)cc1)c1cccs1,"inconclusive: 25.1 µM [inhibitor, single point]",
O=C(c1cccs1)N(Cc1ccc(Cl)cc1)C1CCS(=O)(=O)C1 (centres undefined),"inconclusive: 14.1 µM [activator, single point]",
Cc1cc(/C=C2\SC(=S)NC2=O)c(C)n1-c1ccccc1,"inconclusive: 11.2 µM [inhibitor, partial curve, poor fit]",
Cc1ccc(NC(=O)Cn2cc(C(=O)c3cccs3)c3ccccc32)cc1C,"inconclusive: 7.94 µM [inhibitor, partial curve, poor fit]",
Cc1ccc(C(=O)c2cn(Cc3cccc(F)c3)c3nc(C)ccc3c2=O)cc1,,inactive: -2.8% [at 46.1 µM]
CCCCCNC(=O)c1cccc(S(=O)(=O)N2CC3(C)CC2CC(C)(C)C3)c1 (centres undefined),active: 12.6 µM,
CN(C)c1ccc(C(=O)Nc2nc3c(s2)CCCC3)cc1,"inconclusive: 6.51 µM [inhibitor, partial curve, poor fit]",
O=C(Nc1cccc(C(=O)N2CCCCC2)c1)c1ccccc1Br,"inconclusive: 2.82 µM [inhibitor, single point]",
CC(=O)Oc1ccc(N2C(=O)C3C4C=CC(CO)(O4)C3C2=O)cc1 (centres undefined),,inactive: -5.63%
O=C(COc1ccccc1F)Nc1ccc2c(c1)OCCO2,"inconclusive: 3.16 µM [activator, partial curve, poor fit]",
COC(=O)C1=C(C)NC(=O)/C1=C\c1cc(C)n(-c2cccc(C)c2)c1C,"inconclusive: 22.4 µM [inhibitor, single point]",
CCn1c(C(=O)N2CCC(C(=O)NCc3ccc(OC)cc3)CC2)cc2sccc21,"inconclusive: 17.8 µM [inhibitor, single point]",

# An excerpt of these results, with bars between the fields:
SMILES | Potency | activity change, negative = inhibition
Cc1cc(/C=C2\SC(=S)NC2=O)c(C)n1-c1ccccc1 | inconclusive: 11.2 µM [inhibitor, partial curve, poor fit] | 
Cc1ccc(NC(=O)Cn2cc(C(=O)c3cccs3)c3ccccc32)cc1C | inconclusive: 7.94 µM [inhibitor, partial curve, poor fit] | 
Cc1ccc(C(=O)c2cn(Cc3cccc(F)c3)c3nc(C)ccc3c2=O)cc1 |  | inactive: -2.8% [at 46.1 µM]
CCCCCNC(=O)c1cccc(S(=O)(=O)N2CC3(C)CC2CC(C)(C)C3)c1 (centres undefined) | active: 12.6 µM | 
CN(C)c1ccc(C(=O)Nc2nc3c(s2)CCCC3)cc1 | inconclusive: 6.51 µM [inhibitor, partial curve, poor fit] | 

# Following part.

SMILES,Potency,"activity change, negative = inhibition"
CCCOc1ccc(NC(=O)CC2C(=O)N(c3cccc(C)c3)C(=O)N2CCc2ccncc2)cc1 (centres undefined),,inactive: -2.68% [at 46.1 µM]
O=C(Nc1ccccc1-c1ccccc1)C(c1ccccc1)c1ccccc1,,inactive: 3.19%
O=C(Nc1ccc(S(=O)(=O)Nc2cnc3ccccc3n2)cc1)c1cccc(OC(F)F)c1,"inconclusive: 11.2 µM [inhibitor, single point]",
CCOc1ccc(-c2cc(C(=O)NCc3ccc(OC)cc3)c3c(-c4ccc(F)cc4)[nH]nc3n2)cc1,"inconclusive: 17.8 µM [activator, single point]",
Cc1cccc(CSC(Nc2ccc(F)cc2)=C(C#N)C#N)c1,"inconclusive: 20.6 µM [inhibitor, single point]",
O=C(CSc1nnc(SCc2ccccc2)s1)N/N=C/C=C/c1ccccc1[N+](=O)[O-],,inactive: -4.3%
Cc1oc(-c2ccccc2)nc1CNS(=O)(=O)c1ccc(Cl)cc1,"inconclusive: 5.62 µM [inhibitor, partial curve, poor fit]",
O=C(CC1SC(=Nc2ccc(O)cc2)NC1=O)Nc1ccccc1 (centres undefined),"inconclusive: 10 µM [inhibitor, partial curve, poor fit]",
COCCNC(=O)c1ccccc1NC(=O)COc1ccccc1,"inconclusive: 23.1 µM [activator, single point]",
Cc1cc(C(=O)Nc2ccc(CC(=O)O)cc2)c(C)o1,"inconclusive: 10 µM [inhibitor, partial curve, poor fit]",
CN1c2ccc(Cl)cc2C(=O)NC1C1CC=CCC1 (centres undefined),,inactive: -0.479%
N#Cc1c(-c2ccco2)cc(C2CC2)nc1N,,inactive: 4.4%
COc1ccc(OC)c(-n2cnc3cc(C(=O)NC4CCCC4)ccc32)c1,,inactive: -19.9% [at 46.1 µM]
COc1ccc(-c2nn3ncccc3c2-c2ccnc(Nc3ccc(F)c(F)c3)n2)cc1,"inconclusive: 25 µM [inhibitor, single point]",
C/C(=N\NC(=O)c1ccc(O)cc1)c1cccc(NC(=O)c2ccc(Cl)cc2)c1,"inconclusive: 35.5 µM [inhibitor, single point]",
CC(C)CN(C(=O)COC(=O)C1c2ccccc2Oc2ccccc21)C1CCS(=O)(=O)C1 (centres undefined),"inconclusive: 10 µM [inhibitor, partial curve, poor fit]",
Nc1nc(CSc2nnnn2-c2ccccc2)nc(N2CCCc3ccccc32)n1,"inconclusive: 35.5 µM [inhibitor, single point]",
CCN1C(=O)C2(C(C(=O)c3cc4ccccc4o3)=C(O)C(=O)N2CCCN(C)C)c2ccccc21 (centres undefined),"inconclusive: 12.6 µM [activator, single point]",
COc1ccc(C(=O)Nc2nc3ccccc3s2)cc1OC,"inconclusive: 2.82 µM [activator, single point]",
Cc1cc(C(F)(F)F)nc(SCc2ccc(C(=O)O)o2)n1,,inactive: 2.38%
O=C(CNC(=O)c1ccc(S(=O)(=O)N2CCCC2)cc1)N/N=C/c1ccc(Cl)cc1,,inactive: -5.04%
COc1ccc(C(=O)NNC(=S)NC(=O)c2ccccc2)cc1,"inconclusive: 35.5 µM [inhibitor, single point]",
Cc1ccc(NC(=O)c2cc(-c3cccs3)on2)cc1C,"inconclusive: 10 µM [activator, partial curve, poor fit]",

SMILES,Potency,"activity change, negative = inhibition"
Cc1ccc(-n2ncc3c(NCCCn4ccnc4)ncnc32)cc1,"inconclusive: 10 µM [activator, partial curve, poor fit]",
COC(=O)c1cc2occc2n1CC(=O)Nc1ccc(C)cc1C,,inactive: -0.588%
CC1CCN(C(=O)COc2ccc(Nc3ccccc3)cc2)CC1,,inactive: -4.62%
Cc1ccc(-c2nc3ccccc3[nH]2)cc1N,"inconclusive: 18.3 µM [inhibitor, single point]",
CC(C)=CC(=O)Nc1nnc(C(C)C)s1,"inconclusive: 0.112 µM [activator, full curve]",
Cc1ccc(CSc2nnc(-c3cccc(S(=O)(=O)N4CCOCC4)c3)n2C2CCCC2)cc1,"inconclusive: 15.8 µM [inhibitor, single point]",
O=C(C1CCN(C2CCN(Cc3ccc4c(c3)CCO4)CC2)CC1)N1CCOCC1,,inactive: -15.6% [at 46.1 µM]
COc1cc2c(cc1NC(=O)CSc1ccccc1)oc1ccccc12,,inactive: 0.893%
COCCN(C(=O)Cc1cccs1)C(C(=O)NCc1ccc(OC)cc1)c1ccc(C)cc1 (centres undefined),"inconclusive: 9.2 µM [inhibitor, partial curve]",
CCOc1ccc(CN(C)C(C)C(=O)Nc2ccc([N+](=O)[O-])cc2Cl)cc1OC (centres undefined),,inactive: 0.699%
CCOC(=O)c1cccc(Nc2nc(C(=O)OCC)nc3ccccc23)c1,"inconclusive: 2 µM [inhibitor, single point]",
COc1ccc(Cl)cc1-c1nc(-c2ccc(NC(=O)c3ccncc3)cc2)no1,,inactive: -17.2%
CCc1ccc(CN(C)C(=O)c2cc(COc3c(F)cccc3F)on2)cc1,,inactive: -22.8%
O=C(C1CC1)N1CCN(c2ccnc3cc(Cl)ccc23)CC1,,inactive: 0.85%
Oc1c(C(c2ccc(Cl)cc2)N2CCCC2)sc2nc(-c3ccco3)nn12 (centres undefined),,inactive: 0.158% [at 46.1 µM]
CCOC(=O)c1ccc(NC(=O)CNC(=O)c2ccccc2)cc1,"inconclusive: 9.2 µM [activator, partial curve, poor fit]",
COc1ccc(NC(=O)CSc2ccc3ccccc3c2)cc1S(=O)(=O)N1CCCCC1,"inconclusive: 11.2 µM [inhibitor, partial curve, poor fit]",
Cc1cc(-c2nc(C)c(C(=O)NN)s2)no1,"inconclusive: 12.6 µM [inhibitor, partial curve, poor fit]",
NC(=O)CC1SC(N)=NC1=O (centres undefined),"inconclusive: 3.98 µM [activator, single point]",
CS(=O)(=O)N1CCCC(C(=O)NCc2cccs2)C1 (centres undefined),"inconclusive: 6.51 µM [activator, partial curve, poor fit]",
CCn1c(SCc2cccc(OC)c2)nc2ccccc2c1=O,"inconclusive: 35.5 µM [inhibitor, single point]",
Cc1cccc(C(=O)OCC(=O)NC(C)CCc2ccccc2)c1 (centres undefined),"inconclusive: 14.1 µM [inhibitor, partial curve, poor fit]",
CC(=O)c1ccc(N2CCN(c3ncnc4onc(-c5ccc(Cl)cc5)c34)CC2)cc1,"inconclusive: 7.08 µM [inhibitor, partial curve, poor fit]",
